PubChem BioAssay AID504786 | Drosophila RNAi Screening Center | 2011
In all, the deposit lists about 21,000 reagents; shown is a random part of those that have a named target and a result. 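Primary screen; positive scores mean lost reporter signal, so the sign may be inverted from the usual convention.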 The numbers tell different reagents against one gene apart. A plus sign joins genes that one reagent is predicted to hit. Further read-outs or replicates are left out here. No sequences are given here.

Purpose: 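Knock-downs reducing HIF reporter induction by the iron chelator DFO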 (primary screen)
Cells: Drosophila S2 cells with a stable HIF luciferase reporter
Reagents: long dsRNA against Drosophila genes, about 0.2 µg dsRNA per well of a 384-well plate
Duration: three days of knock-down, then 20 h of DFO before reading
Treatment: desferrioxamine (DFO) at 100 µM, an iron chelator that mimics hypoxia, for 20 h
Measurement: 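Firefly luciferase driven by the mouse ldh-a hypoxia-response element, measured after 20 h of 100 µM DFO; z-scores per plate, higher means more signal lost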
Reading the numbers: z-score: higher = stronger loss of HIF reporter signal

With knock-down of CG6294 + CG6299 + CG15642, the record shows z-score, replicate 1 = -0.4.
CG42262 (retired record) #1 showed z-score, replicate 1 = 0.6.
Depletion of CG42262 (retired record) #2 came out at: z-score, replicate 1 = -0.2.
After knock-down of smo, the record shows z-score, replicate 1 = -0.3.
After knock-down of CG8677, the record shows z-score, replicate 1 = -0.3.
For CG34436 the deposit lists z-score, replicate 1 = -0.2.
After knock-down of CG18540 the results were z-score, replicate 1 = -0.2.
With knock-down of Syt12, the screen gave z-score, replicate 1 = -0.4.
CG31496 gave z-score, replicate 1 = -0.4.
CG9631 scored z-score, replicate 1 = -0.1.
After knock-down of mtgo #1 the results were z-score, replicate 1 = 0.2.
After knock-down of mtgo #2 the results were z-score, replicate 1 = -0.1.
After knock-down of mtgo #3, the record shows z-score, replicate 1 = 0.
After knock-down of Lipt1 #1, the record shows z-score, replicate 1 = -0.3.
Depletion of Lipt1 #2 resulted in: z-score, replicate 1 = -0.1.
With knock-down of fun (retired record), the record shows z-score, replicate 1 = -0.4.
For CG10064, the entry reads z-score, replicate 1 = 0.
Against bdg, the values are z-score, replicate 1 = -0.2.
Silencing of CG17002 came out at: z-score, replicate 1 = 0.
Knock-down of COX4 gave: z-score, replicate 1 = 2.4.
After knock-down of rad50, the record shows z-score, replicate 1 = -0.2.
Against Pvr, the entry reads z-score, replicate 1 = 4.5.
Rbf gave z-score, replicate 1 = 0.1.
With knock-down of RpL10Ab, the screen gave z-score, replicate 1 = 6.5.
For CG2076, the values are z-score, replicate 1 = -0.2.
With knock-down of Or43a the results were z-score, replicate 1 = -0.3.
CG5276 scored z-score, replicate 1 = -0.4.
CG2889 showed z-score, replicate 1 = -0.3.
Against CG5644, the entry reads z-score, replicate 1 = -0.3.
For CG3927, the entry reads z-score, replicate 1 = -0.3.
Silencing of Patj came out at: z-score, replicate 1 = 4.5.
For CAH3, the entry reads z-score, replicate 1 = -0.2.
CG16879 (retired record) scored z-score, replicate 1 = -0.3.
qua scored z-score, replicate 1 = -0.3.
With knock-down of CG33203 #1, the screen gave z-score, replicate 1 = 0.6.
Depletion of CG33203 #2 came out at: z-score, replicate 1 = -0.5.
Against CG33203 #3, the entry reads z-score, replicate 1 = -0.4.
After knock-down of form3 #1, the screen gave z-score, replicate 1 = -0.4.
With knock-down of form3 #2, the record shows z-score, replicate 1 = -0.2.
form3 #3 showed z-score, replicate 1 = -0.4.
